Laboratory results as given in US20160208005A1.
No constants are given. Whether binding was seen depends on the method and setting. Some results given as binding are weak or reduced against the parent protein; the word gives no strength.

Experiments:
[1] = biological target: monkey TSLP receptor-human Fc fusion protein (monkey (receptor part), human (Fc part)); test: ELISA using the monkey TSLP receptor-human Fc fusion protein
[2] = biological target: human TSLP receptor-human Fc fusion protein (human); test: ELISA using the human TSLP receptor-human Fc fusion protein

binding [1]: binds
binding [2]: binds
B1: T7-27 (chimeric antibody) (antibody, V domains shown)
VH: EVQLLESGGGLVQPGGSLRLSCAASGFTFRSSAMHWVRQAPGKGLKWVSSVSGSGAGTYYADSVKGRFTISRDNPKNTLYLQMNSLRAEDTAVYYCVKEGGSRGFDYWGQGTLVTVSS
VL: DIQMTQSPSSLSASVGDRVTITCRASQDISNYLAWFQQKPGKAPKSLIYTASSLQSGVPSKFSGSGSGTDFTLTISSLQPEDFATYYCQQYNLYPPTFGQGTKVEIKR
